Test results from patent US5583142A, “Analgesic and nootropic drugs” (priority 1992, dated 1996).
“And” between values parts separate entries of the source, which are not always exact repeats. Equal entries are not always repeated.

Columns and labels:
[1] = mouse, in vivo
Method: The analgesic action was detected in mouse, rat, guinea pig and dog. The mouse was subjected to hot plate and writhing tests; the rat to tail-flick and paw-pressure tests; the guinea pig to paw-pressure test only; the dog to the test described by Vainio et al. [J. Vet. Pharmacol. Ther., 12, 225-231 (1989)] using an electric stimulation. Consequently, the claimed compounds were tested with pain being induced by stimuli of different nature: thermal (hot plate and tail flick), chemical (writhing by acetic acid), mechanical (paw pressure) and electrical (cutaneous stimulation).
(§1) Potency, efficacy and toxicity of SM21, PG9 and SM32 in comparison with
(§2) four principal reference analgesic drugs tested in mouse. As analgesic

in vivo [2] = conditions: mouse, sc
Description: as §1, §2

in vivo [3] = conditions: mouse, sc; remark: listed apart in the source
Description: All products tested to detect their antinociceptive activity had been previously tested by the rota-rod test to determine their maximum utilizable dose in analgesic tests. In fact, by this test it is possible to determine the highest dose of drug not impairing the normal performance of animals in a test that simultaneously evaluates motor coordination, equilibrium, resistance to fatigue, and muscle strength. This test is meant to evaluate the capability of mice to stay balanced on a rotating rod [cf. Vaught et al., Neuropharmacology, 24 (3) 211-216 (1985)].
The calculated doses were those used in the two analgesic tests on mice.

[4] = tested on: presynaptic muscarinic autoreceptor; conditions: cited from earlier work

CN(C)CCOC(c1ccccc1)c1ccccc1 [Diphenhydramine]
Efficacy as analgesic (Morphine = 100), AUC (Area Under Curve) [1]: 28 | LD50 (in vivo [2]): 127 mg/kg and 497 µmol/kg | NOAEL (in vivo [3]): 20.5 mg/kg

CN1CC[C@]23c4c5ccc(O)c4O[C@H]2[C@@H](O)C=C[C@H]3[C@H]1C5.Cl [Morphine HCl]
LD50 (in vivo [2]): 531 mg/kg and 1650 µmol/kg | NOAEL (in vivo [3]): 8.2 mg/kg

CCN(CC)CC(=O)Nc1c(C)cccc1C [lidocaine]
selectivity and efficacy as antagonists of the presynaptic muscarinic autoreceptor [4]: little selective as well as little efficacious
